The text below walks through data of PMC6642096 (Nature Communications, 2019).

By UniProt entry, the sequences of proteins in these tests, tags left out.
UniProt O60238: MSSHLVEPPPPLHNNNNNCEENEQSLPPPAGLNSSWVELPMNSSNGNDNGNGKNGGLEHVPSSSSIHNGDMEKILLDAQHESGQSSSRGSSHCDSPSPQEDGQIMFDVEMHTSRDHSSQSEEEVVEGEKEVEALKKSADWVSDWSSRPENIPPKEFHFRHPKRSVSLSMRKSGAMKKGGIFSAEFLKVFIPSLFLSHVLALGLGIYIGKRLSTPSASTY
UniProt F5HF68: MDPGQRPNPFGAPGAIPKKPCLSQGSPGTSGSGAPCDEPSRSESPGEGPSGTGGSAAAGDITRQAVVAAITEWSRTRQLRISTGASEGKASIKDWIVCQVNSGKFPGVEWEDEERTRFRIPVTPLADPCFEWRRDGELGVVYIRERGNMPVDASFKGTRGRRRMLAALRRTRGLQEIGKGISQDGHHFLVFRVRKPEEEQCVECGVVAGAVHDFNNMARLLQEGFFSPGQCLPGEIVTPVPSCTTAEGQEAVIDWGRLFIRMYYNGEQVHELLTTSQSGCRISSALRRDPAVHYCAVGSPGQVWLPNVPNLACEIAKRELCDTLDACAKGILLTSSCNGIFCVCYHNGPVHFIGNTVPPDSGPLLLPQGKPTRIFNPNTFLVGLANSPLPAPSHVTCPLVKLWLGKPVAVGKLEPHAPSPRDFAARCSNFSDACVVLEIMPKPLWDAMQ

For the assay, the target named is NIX (BNIP3L), endogenous in iBCBL-1 cells (human (endogenous in iBCBL-1)) (UniProt O60238). Kind of assay: co-IP.

Results are given in words; binding and its absence hold for the method and conditions named. In cells and extracts the contact can be indirect. Some binding calls cover weakened binding; strength is not graded here.

As for “viral interferon regulatory factor 1 (vIRF-1), expressed from HHV-8 in lytic iBCBL-1 cells (from UniProt F5HF68 1-449)”, the binding entry is listed as “binds”.
